Columns and labels:
in vitro [1] = format: cell-based; settings: human
Method: Human hepatocellular carcinoma (HepG2) and Chinese Hamster Ovary (CHO-K1) cells obtained from the American Type Culture Collection (Manassas, VA, USA) were cultured in Eagle’s medium (MEM, Gibco®, Waltham, MA, USA) containing 10% fetal bovine serum (FBS) plus 100 µg/mL streptomycin and 100 µg/mL penicillin at 37 °C in a 5% CO2 atmosphere. Logarithmic-phase cells were used in all the experiments.
Fresh HepG2 and CHO-K1 cells were seeded at a density of 1 × 10^4/well. […] Briefly, after treatment, the culture medium was replaced by 90 μL fresh culture medium and 10 μL WST-1 reagent and incubated at 37 °C and 5% CO2 for 3 h. The absorbance was then measured at 440 nm according to the kit protocol.

[2] = system: P. falciparum parasites (W2 clone) chloroquine-resistant; test: Antiplasmodial activity, anti-HRPII assay; format: cell-based, Plasmodium falciparum; settings: LC50 (HepG2)/EC50 (P. falciparum)
Excerpt: P. falciparum W2 clone was maintained in continuous culture as previously described. […] Prior to testing, the ring-stage parasites were synchronized using sorbitol.
The test quantification was read at 450 nm on a spectrophotometer (SpectraMax340PC384, Molecular Devices Sunnyvale, CA, USA), and the drug activity was expressed as the half-maximal inhibitory concentration (EC50) compared to the drug-free controls using the curve-fitting software Origin 8.0 (OriginLab Corporation, Northampton, MA, USA).

in vitro [3] = format: cell-based; settings: mouse
Method: Mouse fibroblasts (L929) obtained from the American Type Culture Collection (Manassas, VA, USA) were cultured at 37 °C in RPMI-1640 medium (Gibco BRL) supplemented with 10% FBS and 2 mM glutamine, as reported in [49].
(§1) Cardiac cell cultures were incubated for 24 h at 37 °C with different concentrations of the compounds (up to 200 µM) diluted in DMEM (without phenol red). Their morphology and spontaneous contractibility were evaluated by light microscopy and then the cellular viability was determined by the PrestoBlue® assay. For this colorimetric bioassay, PrestoBlue® (Invitrogen, Waltham, MA, USA) was added to each well (using a 10:1 medium/dye), the plate was further incubated for 24 h followed by optical density (OD) measurement performed at 570 and 600 nm, as recommended by the manufacturer. A similar protocol was used to evaluate L929 cell viability after 96 h of exposure to the compounds, using 10 μL AlamarBlue® (Invitrogen).

in vitro [4] = format: cell-based; settings: mouse; remark: listed apart in the source
Method: Primary cultures of cardiac cells (CC) were obtained as reported in [50]. The cultures were sustained in Dulbecco’s modified Eagle’s medium (DMEM) supplemented with 10% horse serum, 5% fetal bovine serum (FBS), 2.5 mM CaCl2, 1 mM L-glutamine, and 2% chicken embryo extract. Cell cultures were maintained at 37 °C in an atmosphere of 5% CO2, and assays were run at least three times in triplicate.
as §1

Q: Which CC50 at 24 h (in vitro [1]) does the source give for `CC(C)c1c(C(=O)Nc2ccccc2)c(-c2ccccc2)c(-c2ccc(F)cc2)n1CC[C@@H](O)C[C@@H](O)CC(=O)O` [AVA, atorvastatin, reference compound] here?
A: > 1000 µM

Q: And the SI [2]?
A: >98

Q: What about the CC50 at 96 h (in vitro [3]) of the same compound?
A: 76.1 ± 2.16 µM

Q: And the CC50 at 24 h (in vitro [4])?
A: 361 ± 18.2 µM

Reference: article PMC10301432, “Antiplasmodial, Trypanocidal, and Genotoxicity In Vitro Assessment of New Hybrid α,α-Difluorophenylacetamide-statin Derivatives” (Pharmaceuticals, 2023)
